From the supplement of paper PMC12067093, “Discovery and optimisation of a covalent ligand for TRIM25 and its application to targeted protein ubiquitination” (Chemical Science, 2025)
This is one part of the list.

Protein sequences, listed by entry. Tags and fused reporters are not part of them. Lines headed by an entry give the natural chain unless they say otherwise; changes in a name come on top.
UniProt P31930: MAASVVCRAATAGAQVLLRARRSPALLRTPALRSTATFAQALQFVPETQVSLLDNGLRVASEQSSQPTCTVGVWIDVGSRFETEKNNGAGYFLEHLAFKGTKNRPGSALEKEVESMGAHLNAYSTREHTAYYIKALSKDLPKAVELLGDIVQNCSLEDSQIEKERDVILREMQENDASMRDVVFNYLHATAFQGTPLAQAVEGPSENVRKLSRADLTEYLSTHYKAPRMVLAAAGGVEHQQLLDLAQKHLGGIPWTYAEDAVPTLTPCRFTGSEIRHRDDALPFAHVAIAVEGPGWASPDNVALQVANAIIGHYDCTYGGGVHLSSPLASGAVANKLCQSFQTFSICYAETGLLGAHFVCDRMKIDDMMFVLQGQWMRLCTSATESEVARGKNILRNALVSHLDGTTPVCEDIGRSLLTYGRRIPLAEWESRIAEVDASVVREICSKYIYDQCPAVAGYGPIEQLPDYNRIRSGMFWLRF
UniProt Q8NB14: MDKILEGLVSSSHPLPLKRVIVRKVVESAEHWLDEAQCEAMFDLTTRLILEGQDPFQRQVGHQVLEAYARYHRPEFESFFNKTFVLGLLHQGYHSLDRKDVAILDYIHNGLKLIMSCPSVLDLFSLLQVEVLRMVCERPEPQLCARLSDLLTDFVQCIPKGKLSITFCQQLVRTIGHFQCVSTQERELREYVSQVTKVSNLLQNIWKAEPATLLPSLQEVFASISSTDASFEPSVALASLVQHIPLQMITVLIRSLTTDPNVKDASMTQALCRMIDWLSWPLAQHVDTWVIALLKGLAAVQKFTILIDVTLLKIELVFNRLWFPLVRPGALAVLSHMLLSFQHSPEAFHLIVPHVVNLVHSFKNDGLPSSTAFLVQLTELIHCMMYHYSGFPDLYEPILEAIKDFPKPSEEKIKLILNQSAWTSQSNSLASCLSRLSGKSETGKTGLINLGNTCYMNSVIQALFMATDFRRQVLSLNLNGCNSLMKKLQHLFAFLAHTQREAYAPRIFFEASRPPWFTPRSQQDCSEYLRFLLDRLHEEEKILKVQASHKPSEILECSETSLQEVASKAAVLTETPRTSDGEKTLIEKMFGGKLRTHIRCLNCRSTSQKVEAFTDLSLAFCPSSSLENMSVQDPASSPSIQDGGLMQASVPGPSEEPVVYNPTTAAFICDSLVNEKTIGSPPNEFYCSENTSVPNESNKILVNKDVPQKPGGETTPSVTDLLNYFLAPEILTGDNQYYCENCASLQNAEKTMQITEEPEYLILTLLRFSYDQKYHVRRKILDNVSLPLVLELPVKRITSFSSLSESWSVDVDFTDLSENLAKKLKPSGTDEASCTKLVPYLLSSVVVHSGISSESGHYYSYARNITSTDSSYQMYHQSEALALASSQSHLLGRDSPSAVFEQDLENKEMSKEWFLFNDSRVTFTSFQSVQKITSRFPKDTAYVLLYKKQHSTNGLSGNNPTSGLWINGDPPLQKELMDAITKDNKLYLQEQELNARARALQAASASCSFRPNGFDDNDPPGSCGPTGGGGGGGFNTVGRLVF
UniProt P35125: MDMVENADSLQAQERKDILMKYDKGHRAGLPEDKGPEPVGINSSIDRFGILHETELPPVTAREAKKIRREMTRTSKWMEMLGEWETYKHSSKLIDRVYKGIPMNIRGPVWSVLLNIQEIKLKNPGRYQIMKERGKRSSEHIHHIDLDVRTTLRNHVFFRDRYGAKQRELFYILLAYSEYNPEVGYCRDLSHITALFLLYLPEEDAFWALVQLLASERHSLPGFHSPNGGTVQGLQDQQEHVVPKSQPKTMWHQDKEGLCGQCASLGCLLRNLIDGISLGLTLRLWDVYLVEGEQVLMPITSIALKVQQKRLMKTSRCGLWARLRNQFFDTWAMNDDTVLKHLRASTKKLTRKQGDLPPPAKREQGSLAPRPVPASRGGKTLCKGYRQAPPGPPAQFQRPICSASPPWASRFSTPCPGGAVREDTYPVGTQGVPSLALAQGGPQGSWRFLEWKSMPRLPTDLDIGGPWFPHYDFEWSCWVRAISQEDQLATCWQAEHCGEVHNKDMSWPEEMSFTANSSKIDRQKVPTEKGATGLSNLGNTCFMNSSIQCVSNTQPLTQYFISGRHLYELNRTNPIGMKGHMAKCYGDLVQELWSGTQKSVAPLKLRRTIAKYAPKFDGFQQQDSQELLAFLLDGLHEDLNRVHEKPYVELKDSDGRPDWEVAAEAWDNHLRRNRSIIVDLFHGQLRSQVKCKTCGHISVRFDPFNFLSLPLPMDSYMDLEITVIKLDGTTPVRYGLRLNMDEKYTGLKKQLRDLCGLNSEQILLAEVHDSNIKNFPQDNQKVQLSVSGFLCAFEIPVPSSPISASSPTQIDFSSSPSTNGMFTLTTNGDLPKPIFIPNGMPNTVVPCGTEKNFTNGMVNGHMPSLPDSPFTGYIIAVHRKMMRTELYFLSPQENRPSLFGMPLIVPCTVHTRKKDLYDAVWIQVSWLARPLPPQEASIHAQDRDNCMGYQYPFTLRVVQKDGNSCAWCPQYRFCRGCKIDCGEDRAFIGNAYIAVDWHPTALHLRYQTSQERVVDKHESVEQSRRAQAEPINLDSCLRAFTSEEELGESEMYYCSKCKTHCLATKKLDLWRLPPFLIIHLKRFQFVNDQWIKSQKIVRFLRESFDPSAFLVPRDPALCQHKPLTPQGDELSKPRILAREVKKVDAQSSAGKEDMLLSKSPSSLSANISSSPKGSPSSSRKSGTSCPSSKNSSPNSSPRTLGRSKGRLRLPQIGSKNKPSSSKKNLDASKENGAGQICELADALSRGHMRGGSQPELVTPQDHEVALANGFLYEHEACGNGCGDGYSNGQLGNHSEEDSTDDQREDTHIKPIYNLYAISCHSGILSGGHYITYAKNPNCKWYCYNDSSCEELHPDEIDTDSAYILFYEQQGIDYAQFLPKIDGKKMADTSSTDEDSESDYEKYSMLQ
UniProt Q9Y4E8: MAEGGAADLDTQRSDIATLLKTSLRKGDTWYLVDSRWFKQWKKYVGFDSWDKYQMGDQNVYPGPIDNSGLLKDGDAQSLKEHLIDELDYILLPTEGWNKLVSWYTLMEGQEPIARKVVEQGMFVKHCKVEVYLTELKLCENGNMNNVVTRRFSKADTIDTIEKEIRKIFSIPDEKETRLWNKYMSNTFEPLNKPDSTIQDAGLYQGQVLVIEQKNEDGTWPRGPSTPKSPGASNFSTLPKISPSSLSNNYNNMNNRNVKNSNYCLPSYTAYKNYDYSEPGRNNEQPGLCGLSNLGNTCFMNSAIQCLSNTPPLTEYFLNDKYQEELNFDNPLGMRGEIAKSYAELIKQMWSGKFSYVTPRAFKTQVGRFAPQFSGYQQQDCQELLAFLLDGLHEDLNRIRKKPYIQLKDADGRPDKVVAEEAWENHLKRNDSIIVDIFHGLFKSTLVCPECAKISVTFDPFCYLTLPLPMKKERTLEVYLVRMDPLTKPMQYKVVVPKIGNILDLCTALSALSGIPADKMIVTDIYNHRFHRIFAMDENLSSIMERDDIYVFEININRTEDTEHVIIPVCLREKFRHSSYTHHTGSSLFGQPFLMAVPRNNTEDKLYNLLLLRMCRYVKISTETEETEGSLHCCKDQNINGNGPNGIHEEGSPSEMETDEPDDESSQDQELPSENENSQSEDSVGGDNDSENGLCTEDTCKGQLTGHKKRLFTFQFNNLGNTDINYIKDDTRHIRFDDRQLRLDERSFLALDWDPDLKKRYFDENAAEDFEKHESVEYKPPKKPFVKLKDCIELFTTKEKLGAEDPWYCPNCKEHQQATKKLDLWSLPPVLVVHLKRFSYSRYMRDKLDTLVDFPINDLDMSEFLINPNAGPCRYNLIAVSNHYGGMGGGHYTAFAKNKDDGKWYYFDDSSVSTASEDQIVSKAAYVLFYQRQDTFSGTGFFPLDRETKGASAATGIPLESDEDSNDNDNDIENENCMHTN
UniProt Q04323: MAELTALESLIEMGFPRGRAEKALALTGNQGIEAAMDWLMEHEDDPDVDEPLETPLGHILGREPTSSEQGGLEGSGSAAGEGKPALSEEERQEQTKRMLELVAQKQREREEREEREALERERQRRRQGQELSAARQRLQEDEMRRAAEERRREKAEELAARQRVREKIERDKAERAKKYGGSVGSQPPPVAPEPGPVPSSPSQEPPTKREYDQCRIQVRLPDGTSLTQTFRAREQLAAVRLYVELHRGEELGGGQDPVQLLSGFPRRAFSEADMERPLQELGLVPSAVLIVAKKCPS
UniProt Q92900: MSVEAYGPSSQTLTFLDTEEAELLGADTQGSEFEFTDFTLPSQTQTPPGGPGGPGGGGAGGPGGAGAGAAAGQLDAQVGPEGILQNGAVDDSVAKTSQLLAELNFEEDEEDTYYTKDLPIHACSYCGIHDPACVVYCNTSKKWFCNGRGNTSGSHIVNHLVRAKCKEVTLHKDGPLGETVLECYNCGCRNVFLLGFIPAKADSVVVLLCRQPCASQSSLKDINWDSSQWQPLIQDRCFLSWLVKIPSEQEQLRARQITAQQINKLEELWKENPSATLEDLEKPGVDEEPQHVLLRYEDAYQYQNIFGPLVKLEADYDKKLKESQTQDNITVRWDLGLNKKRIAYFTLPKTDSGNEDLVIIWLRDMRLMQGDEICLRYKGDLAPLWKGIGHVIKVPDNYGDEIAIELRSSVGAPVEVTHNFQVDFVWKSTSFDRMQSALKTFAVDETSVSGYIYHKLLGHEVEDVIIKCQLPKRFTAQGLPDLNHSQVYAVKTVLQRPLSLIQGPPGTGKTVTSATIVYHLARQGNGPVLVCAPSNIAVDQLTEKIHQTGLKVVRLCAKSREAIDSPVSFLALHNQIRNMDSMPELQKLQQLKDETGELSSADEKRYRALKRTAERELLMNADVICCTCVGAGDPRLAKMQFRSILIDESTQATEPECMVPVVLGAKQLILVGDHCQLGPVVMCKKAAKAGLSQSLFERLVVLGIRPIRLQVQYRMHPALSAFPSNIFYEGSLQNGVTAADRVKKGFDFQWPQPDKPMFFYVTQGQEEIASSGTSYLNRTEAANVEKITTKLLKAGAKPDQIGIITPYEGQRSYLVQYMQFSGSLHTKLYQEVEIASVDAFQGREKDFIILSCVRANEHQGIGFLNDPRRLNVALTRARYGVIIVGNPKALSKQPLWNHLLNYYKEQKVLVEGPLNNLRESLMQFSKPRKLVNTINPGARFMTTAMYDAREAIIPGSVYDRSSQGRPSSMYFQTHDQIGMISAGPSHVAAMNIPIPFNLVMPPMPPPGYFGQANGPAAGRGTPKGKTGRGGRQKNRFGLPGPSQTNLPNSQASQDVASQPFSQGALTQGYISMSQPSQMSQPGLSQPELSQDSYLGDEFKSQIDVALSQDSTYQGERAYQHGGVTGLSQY
UniProt P40818: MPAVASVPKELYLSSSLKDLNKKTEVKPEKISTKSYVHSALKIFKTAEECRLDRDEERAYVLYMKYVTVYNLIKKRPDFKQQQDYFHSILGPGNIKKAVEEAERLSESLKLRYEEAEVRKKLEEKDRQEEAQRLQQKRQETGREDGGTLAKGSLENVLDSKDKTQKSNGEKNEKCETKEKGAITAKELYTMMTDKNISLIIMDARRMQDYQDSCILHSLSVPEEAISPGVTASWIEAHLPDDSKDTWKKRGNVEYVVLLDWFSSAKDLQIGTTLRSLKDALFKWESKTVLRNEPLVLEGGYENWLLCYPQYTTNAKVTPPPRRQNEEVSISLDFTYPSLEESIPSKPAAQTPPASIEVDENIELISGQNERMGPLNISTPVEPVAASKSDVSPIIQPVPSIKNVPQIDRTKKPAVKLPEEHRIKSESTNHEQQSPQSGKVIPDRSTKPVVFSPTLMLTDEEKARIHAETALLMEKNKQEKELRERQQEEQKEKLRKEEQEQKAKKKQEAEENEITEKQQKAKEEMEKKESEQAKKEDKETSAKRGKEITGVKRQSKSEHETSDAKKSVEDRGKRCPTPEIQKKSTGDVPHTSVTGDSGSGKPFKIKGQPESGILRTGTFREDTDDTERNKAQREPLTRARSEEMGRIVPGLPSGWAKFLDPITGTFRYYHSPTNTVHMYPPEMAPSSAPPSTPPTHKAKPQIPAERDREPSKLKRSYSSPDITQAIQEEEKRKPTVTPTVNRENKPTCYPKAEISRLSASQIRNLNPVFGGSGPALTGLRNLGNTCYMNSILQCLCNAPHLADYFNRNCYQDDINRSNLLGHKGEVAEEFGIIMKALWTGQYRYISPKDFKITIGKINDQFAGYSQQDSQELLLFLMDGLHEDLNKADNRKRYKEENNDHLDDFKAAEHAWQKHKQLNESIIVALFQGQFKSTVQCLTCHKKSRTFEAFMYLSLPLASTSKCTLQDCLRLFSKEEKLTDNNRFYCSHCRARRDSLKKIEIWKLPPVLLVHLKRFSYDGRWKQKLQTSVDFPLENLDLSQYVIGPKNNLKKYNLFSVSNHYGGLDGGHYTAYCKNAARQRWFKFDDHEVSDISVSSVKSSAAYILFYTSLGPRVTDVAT

Compound: Cc1cc(ccc1-c1ccccc1)C(=O)N1CCCN(CC1)C(=O)CCl [compound 10]
Experiment: probe-labelled cysteine peptide fold change vs DMSO (competition) (log2 fold change); higher = less target engagement (more negative = stronger competition)
Details: THP-1, incubation time: 4 h
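Further: competitive profiling in live THP-1 cells: cysteine peptides tagged with an iodoacetamide desthiobiotin (IA-DTB) probe, intensity after compound treatment relative to DMSO-treated cells.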

Target	probe-labelled cysteine peptide fold change (10 µM)	probe-labelled cysteine peptide fold change (50 µM)
UGDH_O60701_20_ICCIGAGYVGGPTCSVIAHMCPEIR (UniProt O60701)	0.138	0.346
USP19_O94966_1084_AGHFTLDQCLNLFTRPEVLAPEEAWYCPQCK (UniProt O94966)	0.127	-0.0369
UQCRC1_P31930_410_NALVSHLDGTTPVCEDIGR (UniProt P31930)	-0.112	0.0865
UNK_Q9C0B0_299+308_CNDMQQSGSCPR (UniProt Q9C0B0)	0.193	-0.46
USP19_O94966_1169_EEQLPSYDLYAVINHYGGMIGGHYTACAR (UniProt O94966)	-0.00515	0.0872
USP14_P54578_257_CTESEEEEVTK (UniProt P54578)	-0.254	-0.167
UGGT1_Q9NYU2_1024_VFMNCQSK (UniProt Q9NYU2)	-0.42	0.417
UQCRC1_P31930_268_HLGGIPWTYAEDAVPTLTPCR (UniProt P31930)	-0.173	-0.0825
UBXN7_O94888_38_HMLEACNNNLEMAVTMFLDGGGIAEEPSTSSASVSTVRPHTEEEVRAPIPQK (UniProt O94888)	-0.0495	-0.268
USP38_Q8NB14_834_LKPSGTDEASCTK (UniProt Q8NB14)	-0.1	-0.417
USP34_Q70CQ2_1768_HLADCIR (UniProt Q70CQ2)	0.196	0.0687
UHRF1_Q96T88_318+321_VCACHLCGGR (UniProt Q96T88)	-0.0199	-0.236
UBR7_Q8N806_46_CSYSQGSVKR (UniProt Q8N806)	-0.118	-0.607
USP6_P35125_1237_ENGAGQICELADALSR (UniProt P35125)	-0.416	-0.707
USP4_Q13107_649_QPLPDEFGSSPLEPGACNGSR (UniProt Q13107)	-0.383	-0.622
USP38_Q8NB14_38_VVESAEHWLDEAQCEAMFDLTTR (UniProt Q8NB14)	-0.318	-0.215
UFL1_O94874_649_SIEDFISCLDSAAEACDIMVK (UniProt O94874)	0.171	0.0481
USP15_Q9Y4E8_873_DKLDTLVDFPINDLDMSEFLINPNAGPCR (UniProt Q9Y4E8)	-0.122	-0.144
USP20_Q9Y2K6_393_SSSRPCSPVHHHEGHAK (UniProt Q9Y2K6)	-0.214	-0.617

Target	probe-labelled cysteine peptide fold change (10 µM)	probe-labelled cysteine peptide fold change (50 µM)
UBXN1_Q04323_214_EYDQCR (UniProt Q04323)	0.15	0.122
UPF1_Q92900_133_DLPIHACSYCGIHDPACVVYCNTSK (UniProt Q92900)	-0.021	-0.186
UFSP2_Q9NUQ7_302_IDDNGWGCAYR (UniProt Q9NUQ7)	0.25	0.505
USP6_P35125_1185_SGTSCPSSK (UniProt P35125)	-0.0811	-0.0649
UPF1_Q92900_531_QGNGPVLVCAPSNIAVDQLTEK (UniProt Q92900)	0.158	0.112
UHRF1BP1_Q6BDS2_384_HCEAMETR (UniProt Q6BDS2)	-0.146	-0.0746
UGGT1_Q9NYU2_159_KTCESDTLEALLLTASERPKPLLFK (UniProt Q9NYU2)	-0.163	-0.696
UNC13D_Q70J99_992_DLHPLFDETFEFLVPAEPCRK (UniProt Q70J99)	0.0124	-0.821
USP33_Q8TEY7_278_CLMDLLHEELK (UniProt Q8TEY7)	0.136	-0.0902
USP15_Q9Y4E8_139_LCENGNMNNVVTR (UniProt Q9Y4E8)	0.00708	-0.0543
USP7_Q93009_223_NQGATCYMNSLLQTLFFTNQLR (UniProt Q93009)	-0.101	-0.402
USP15_Q9Y4E8_634_ISTETEETEGSLHCCK (UniProt Q9Y4E8)	-0.145	-0.0655
UPF2_Q9HAU5_687_NDTLHCLK (UniProt Q9HAU5)	0.0284	0.11
UBR7_Q8N806_260_VEQNSEPCAGSSSESDLQTVFK (UniProt Q8N806)	-0.17	-0.285
USP8_P40818_809_NCYQDDINR (UniProt P40818)	-0.199	-1.27
ULK3_Q6PHR2_186_GSPLYMAPEMVCQR (UniProt Q6PHR2)	-0.31	-0.114
USP8_P40818_962_CTLQDCLR (UniProt P40818)	-0.0442	-0.135
UMPS_P11172_278_ELLQLADALGPSICMLK (UniProt P11172)	0.284	0.223
UBR7_Q8N806_82_QALYACSTCTPEGEEPAGICLACSYECHGSHK (UniProt Q8N806)	0.15	-0.825

A different layout for part of the listing above:
Target | probe-labelled cysteine peptide fold change (10 µM) | probe-labelled cysteine peptide fold change (50 µM)
USP15_Q9Y4E8_139_LCENGNMNNVVTR (UniProt Q9Y4E8) | 0.00708 | -0.0543
USP7_Q93009_223_NQGATCYMNSLLQTLFFTNQLR (UniProt Q93009) | -0.101 | -0.402
